Experimental data reported in US20260256780A1, “COMPOSITIONS FOR INDUCING RAS GTP HYDROLYSIS AND USES THEREOF” (Revolution Medicines, Inc., priority 2023, published 2026).
Some results were stated once for a whole list of compounds, not compound by compound.

Target: T1, GTP-loaded KRAS proteins (residue 1-169 of KRAS4B) (Homo sapiens, UniProt P01116, G12V)
T1 construct: recombinant KRAS proteins (residue 1-169 of KRAS4B); His6 (TEV protease-cleavable) (cleaved yes); made in house; host or cells: E. coli
Assay: RAS GTP hydrolysis rate assay (GTPase-Glo) with cyclophilin A
Type: biochemical
Settings: bound in tri-complex with cyclophilin A; in some embodiments KRAS^G12V is the isoform used
Experimental: The rate of RAS GTP hydrolysis was assayed in the presence of various KRAS mutations. To assess GTP hydrolysis activity, recombinant KRAS proteins (residue 1-169 of KRAS4B) were expressed in E. coli and purified using a TEV protease-cleavable His6-tag and Ni^2+ affinity chromatography. The His6 tag was removed by treatment with TEV protease, and the KRAS protein was isolated by passing through a second Ni^2+ column followed by size exclusion chromatography. The purified KRAS proteins were loaded with GTP by incubation for 2 hours on ice with 2 mM GTP and 10 mM Ethylenediaminetetraacetic Acid, followed by addition of 10 mM MgCl2 and incubation on ice for 1 additional hour. The excess GTP was removed by overnight dialysis against buffer (12.5 mM HEPES, 75 mM NaCl, pH 7.5) at 4° C. The GTP-loaded KRAS protein were flash frozen in liquid nitrogen, then stored at −80° C. until use.
GTP-loaded KRAS proteins (1 μM) were combined with 25 μM of recombinant human cyclophilin A and 10 μM of compound in reaction buffer (12.5 mM HEPES, 75 mM NaCl, 1 mM MgCl2, 1 mM DTT, 1% DMSO, pH 7.5) pre-warmed to 37° C. At fixed time points, aliquots were removed and quenched by heating to 80° C. to denature the proteins, then centrifuged to pellet the protein precipitate. The supernatant was assessed for GTP levels using Promega GTPase-Glo™ according to manufacturer instructions. The levels of GTP as a function of incubation time were fit to a single phase exponential decay to determine the rate constant for hydrolysis activity.

| SMILES | hydrolyzer class: RAS(ON) GTP hydrolysis rate relative to the intrinsic hydrolysis rate |
| --- | --- |
| CCn1c(-c2cccnc2[C@H](C)OC)c2c3cc(ccc31)[C@@H]1C[C@H]1CC[C@H](NC(=O)[C@H]1[C@H](C)[C@@H]1C)C(=O)N1CCC[C@H](N1)C(=O)OCC(C)(C)C2 (atropisomer, axis not shown) [compound 1] | strong (exhibits a hydrolysis rate that is greater than 14× the intrinsic hydrolysis rate (a “strong hydrolyzer”)) |
| CCn1c(-c2cccnc2[C@H](C)OC)c2c3cc(ccc31)[C@@H]1C[C@H]1OC[C@H](NC(=O)[C@H]1[C@H](C)[C@@H]1C)C(=O)N1CCC[C@H](N1)C(=O)OCC(C)(C)C2 (atropisomer, axis not shown) [compound 2] | strong (exhibits a hydrolysis rate that is greater than 14× the intrinsic hydrolysis rate (a “strong hydrolyzer”)) |
| CCn1c(-c2cc(N3CCN(C)CC3)cnc2[C@H](C)OC)c2c3cc(ccc31)CCCC[C@H](NC(=O)[C@H]1C[C@@H]1C)C(=O)N1CCC[C@H](N1)C(=O)OCC(C)(C)C2 (atropisomer, axis not shown) [compound 3] | strong (exhibits a hydrolysis rate that is greater than 14× the intrinsic hydrolysis rate (a “strong hydrolyzer”)) |
